In article PMC7819943, “Rice protein-binding microarrays: a tool to detect cis-acting elements near promoter regions in rice” one finds binding signal data, which are given here for 42 sequences.

This is one part of the list.

In the test the target is T1, OsSMF1 (Oryza sativa, UniProt Q6ZLB0 1-436).
T1 sequence: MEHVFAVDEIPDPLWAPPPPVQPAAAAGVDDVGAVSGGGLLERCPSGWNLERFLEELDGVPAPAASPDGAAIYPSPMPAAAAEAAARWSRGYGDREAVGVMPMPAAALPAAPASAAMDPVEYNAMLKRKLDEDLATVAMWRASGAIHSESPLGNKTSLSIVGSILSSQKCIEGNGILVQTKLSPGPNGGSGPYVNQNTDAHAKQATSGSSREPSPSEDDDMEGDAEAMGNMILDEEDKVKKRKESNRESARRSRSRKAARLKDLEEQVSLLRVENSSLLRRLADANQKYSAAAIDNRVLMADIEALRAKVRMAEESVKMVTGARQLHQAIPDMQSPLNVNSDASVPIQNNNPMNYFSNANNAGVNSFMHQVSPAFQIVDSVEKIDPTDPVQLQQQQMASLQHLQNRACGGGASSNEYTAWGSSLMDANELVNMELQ
In words: protein-binding microarray (RPBM); PBS, 2% BSA, 51.3 ng/ul salmon testes DNA, 50 uM zinc acetate, 200 nM TF, 25 C, 1 h; high values mean tight binding. Particulars: protein: recombinant; tags: N-terminal polyhistidine and DsRed monomer fusion (pET32a); chain copies: 2; label: CyDye5-dUTP incorporated in the synthesized complementary strand; 3' TTTTT single-stranded linker to array surface; dsDNA, one strand shown. In a few lines:
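Binding signal is defined as the fluorescence intensity of each feature in arbitrary units, read on an Axon 4000B scanner. Transcription factors with N-terminal polyhistidine and DsRed fusions came from E. coli BL21-CodonPlus and were purified on Ni–NTA. They were incubated at 200 nM for 1 h at 25 °C on a custom Agilent array that had been made double-stranded with Cy5-dUTP, with 50 µM zinc acetate present, and the array was washed.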
As to “CCGCGAGACGACGCGAGCGCACGCACGCCTGCACGCGCGGCGGAGTCACCTAGTGCAG”, the binding signal is 3330 fluorescence intensity (a.u.).

Regarding “CTTAGTCGCCATTTTCTTCCCATATCCACGCGCCACGTGGCGGAGTCACCTAGTGCAG”, the binding signal was 25100 fluorescence intensity (a.u.). As to “AGAGCAAGACAAGATGGTTAGTTCTCACACTTCAGATTGTCGGAGTCACCTAGTGCAG”, the binding signal is 41400 fluorescence intensity (a.u.). The value for “ATGCGCCCATAATGGGCTGTCCTTGTCACGGGCTAAGCTACGGAGTCACCTAGTGCAG” was 5620 fluorescence intensity (a.u.). The same measure for “CAGAGGCAAACGTACGTGGAGGCAGGAGGAGTGGTCACCGCGGAGTCACCTAGTGCAG”: 4440 fluorescence intensity (a.u.). Regarding “GTACAATTATCGTATTTCGCATAACCAACTCACATATGTTCGGAGTCACCTAGTGCAG”, the binding signal is 4100 fluorescence intensity (a.u.). The value for “GTCCTAGTCTAGTAGTAGTACTACGACGTAACAACACTTCCGGAGTCACCTAGTGCAG” was 3640 fluorescence intensity (a.u.). Regarding “ATGTATGACGAGACGTACACGTAAGGGAACGTGCGGTAGGCGGAGTCACCTAGTGCAG”, the binding signal was 6130 fluorescence intensity (a.u.). In the case of “GTTGTTAGATGATAAAACATGATTAATACTTTATGCGTGACGGAGTCACCTAGTGCAG”, the binding signal was 13200 fluorescence intensity (a.u.). As for “TTTGCTATGTGATGTGTCCTGATGAACTTATGAAACGATGCGGAGTCACCTAGTGCAG”, the binding signal was 3710 fluorescence intensity (a.u.). The same measure for “CAAAGGACGATAACGGAGTAGCAGTTGGCGCAAGGTGCCACGGAGTCACCTAGTGCAG”: 3990 fluorescence intensity (a.u.); for “CTTCTTTTGCGAAATCCGTAACAATTCTACTACTATCATGCGGAGTCACCTAGTGCAG”: 29700 fluorescence intensity (a.u.). As to “AATATAATGGCCGCTCGCTGATGGGTGCGTCATGCACCCTCGGAGTCACCTAGTGCAG”, the binding signal was 4060 fluorescence intensity (a.u.). The same measure for “GCGGTTGGAGGAAGACGACGTCACCCACCTTTTCCCCTTTCGGAGTCACCTAGTGCAG”: 7550 fluorescence intensity (a.u.); for “GGGCAGCGCTAACCCAAAGCTCCTGCGATTCCAAACCGACCGGAGTCACCTAGTGCAG”: 64800 fluorescence intensity (a.u.); for “AGTGTGTTTGTGCGTGTTTATAGGGTGAGCGTCTATATTTCGGAGTCACCTAGTGCAG”: 3260 fluorescence intensity (a.u.). The same measure for “AGTGTTCCTAGCTACAACGAGTGGTTTACTTTCTCATCCTCGGAGTCACCTAGTGCAG”: 3270 fluorescence intensity (a.u.); for “TGACCTGACCACCGGTCGTCGTCTTGGGTTGGCTTGGCTTCGGAGTCACCTAGTGCAG”: 3250 fluorescence intensity (a.u.); for “TGTTGGCTCCACGTACGGAATCCAGCCAGGCGCCAGTTGGCGGAGTCACCTAGTGCAG”: 4100 fluorescence intensity (a.u.).

For “ACGCTTGGTGGGGTGGGGTGGTGCTGGTGCCATGAACTGCCGGAGTCACCTAGTGCAG”, the binding signal was 4070 fluorescence intensity (a.u.).

As to “ACGCAGCGGGCCAACTCCAACTCATCCCCAGCCTCCACCACGGAGTCACCTAGTGCAG”, the binding signal is 4360 fluorescence intensity (a.u.). On to “ACTTATGACGATTAAAGTAACAGCGAGTAGTGAGTCAGTGCGGAGTCACCTAGTGCAG”, for which the binding signal is 6720 fluorescence intensity (a.u.).

As to “GGAGCGAGCGACGACGGACGGACGGAGACCTATCGGGTGGCGGAGTCACCTAGTGCAG”, the binding signal was 33300 fluorescence intensity (a.u.). The same measure for “TATTTATTTATTTTAATAATGCCGACAGTGAAGGAAACGTCGGAGTCACCTAGTGCAG”: 3800 fluorescence intensity (a.u.). Take “CTTGCTTGGGCCGACGGTTAGGCGATTGACATGTGGGCCACGGAGTCACCTAGTGCAG”: the binding signal is 3320 fluorescence intensity (a.u.).

Turning to “TTTTCTTCCTTAGTTTTATTTACAGAGCTGGACGTTGCCACGGAGTCACCTAGTGCAG”, the binding signal was 3220 fluorescence intensity (a.u.). The value for “ATCTAACACTGCCTGCCAATGATCATGCATATACTAGTTACGGAGTCACCTAGTGCAG” was 4520 fluorescence intensity (a.u.). The same measure for “CACGGACTCGGCATCCCCGGGCCCACCAACACCGCCTCCGCGGAGTCACCTAGTGCAG”: 3640 fluorescence intensity (a.u.).

With “ACCAAGGAACCCAAGTTCGCATTCACATATGAACAAATGCCGGAGTCACCTAGTGCAG”, the binding signal is 3380 fluorescence intensity (a.u.). In the case of “ATGGGCCGGGGTTAATGTTTTGTGTCATTGTGTGTGAGACCGGAGTCACCTAGTGCAG”, the binding signal is 3300 fluorescence intensity (a.u.). As to “CACTAACTAGGCTGCCCCGTCATCTTCTTCCTCCCGACGACGGAGTCACCTAGTGCAG”, the binding signal was 11200 fluorescence intensity (a.u.). For the sequence “TGGCCTTCTCTGACTCTGCCTCTTCTTCCAAACCAAGCCACGGAGTCACCTAGTGCAG”, the binding signal is 3170 fluorescence intensity (a.u.). The same measure for “GAAGTCCAAACCAGAAACCGAACCAAAACCCACGTCAGAACGGAGTCACCTAGTGCAG”: 8790 fluorescence intensity (a.u.); for “CACCCCTGCTGATGCGTCGCCGCCACCTTCTCTCCTTCCCCGGAGTCACCTAGTGCAG”: 4220 fluorescence intensity (a.u.); for “GGGCCCTAGATCCCATTTCGCCGACAAATACTACCTCATGCGGAGTCACCTAGTGCAG”: 27600 fluorescence intensity (a.u.). Consider “TGAGACATAGCAAACTCGCTAAAAGAGACCGTAATTAACCCGGAGTCACCTAGTGCAG”, for which the binding signal is 3310 fluorescence intensity (a.u.). The same measure for “TGGTGCTGGTCCTCAACATGCATGTGCTATGGCAAGATCCCGGAGTCACCTAGTGCAG”: 42800 fluorescence intensity (a.u.); for “TATCACATATGAGTTGATGACATGATTACTTGGGTTATCACGGAGTCACCTAGTGCAG”: 3270 fluorescence intensity (a.u.). Turning to “CCGCCGACTCGACGCCACCACGTCGCCTCGCTGCGGCCGTCGGAGTCACCTAGTGCAG”, the binding signal is 5370 fluorescence intensity (a.u.). Consider “TTATCAAAGCAAGCGGAATGGTGATGTACACTGACTCAACCGGAGTCACCTAGTGCAG”, for which the binding signal is 3730 fluorescence intensity (a.u.). The value for “TGGGCGCGGGAACGTGTCGCCGACACGTGGGGTCCCAGCCCGGAGTCACCTAGTGCAG” was 5660 fluorescence intensity (a.u.). “GTTCTTAGTCTTTATTTACCTTGTAAAGTGAGGAGATTAACGGAGTCACCTAGTGCAG”: the binding signal is 22500 fluorescence intensity (a.u.).
